Article PMC11157268
Results are given in words; binding and its absence hold for the method and conditions named. Binding seen in cells or lysates may run through a third protein. Some entries that bind do so weakly or less than the wild type. Sequences can lack the tags named with a protein.

Molecular target: T1, GST-APE2 (human) (UniProt Q9UBZ4)
T1 sequence: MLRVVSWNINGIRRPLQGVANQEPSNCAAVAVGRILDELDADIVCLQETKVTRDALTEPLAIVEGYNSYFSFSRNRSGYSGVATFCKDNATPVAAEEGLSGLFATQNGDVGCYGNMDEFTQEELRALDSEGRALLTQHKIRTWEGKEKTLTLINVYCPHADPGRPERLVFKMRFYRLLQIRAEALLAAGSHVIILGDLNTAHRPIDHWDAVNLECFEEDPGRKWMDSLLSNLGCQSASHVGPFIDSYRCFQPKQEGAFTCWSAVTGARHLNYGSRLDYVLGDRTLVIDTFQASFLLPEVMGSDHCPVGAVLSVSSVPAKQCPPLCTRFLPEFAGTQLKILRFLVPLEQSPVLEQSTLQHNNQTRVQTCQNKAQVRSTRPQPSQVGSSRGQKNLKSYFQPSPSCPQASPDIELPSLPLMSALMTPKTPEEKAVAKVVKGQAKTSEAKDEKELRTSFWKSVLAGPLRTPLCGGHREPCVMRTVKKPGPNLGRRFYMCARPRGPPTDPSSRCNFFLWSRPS
Assay: pull-down; GST-APE2 or GST as bait; endogenous MKRN3 from isolated HEK293 nuclear extracts; detected by immunoblot; performed as previously described; only the target purified

B1: Makorin RING finger protein 3 (MKRN3) (protein, UniProt Q13064 1-507)
chain: MEEPAAPSEAHEAAGAQAGAEAAREGVSGPDLPVCEPSGESAAPDSALPHAARGWAPFPVAPVPAHLRRGGLRPAPASGGGAWPSPLPSRSSGIWTKQIICRYYIHGQCKEGENCRYSHDLSGRKMATEGGVSPPGASAGGGPSTAAHIEPPTQEVAEAPPAASSLSLPVIGSAAERGFFEAERDNADRGAAGGAGVESWADAIEFVPGQPYRGRWVASAPEAPLQSSETERKQMAVGSGLRFCYYASRGVCFRGESCMYLHGDICDMCGLQTLHPMDAAQREEHMRACIEAHEKDMELSFAVQRGMDKVCGICMEVVYEKANPNDRRFGILSNCNHSFCIRCIRRWRSARQFENRIVKSCPQCRVTSELVIPSEFWVEEEEEKQKLIQQYKEAMSNKACRYFAEGRGNCPFGDTCFYKHEYPEGWGDEPPGPGGGSFSAYWHQLVEPVRMGEGNMLYKSIKKELVVLRLASLLFKRFLSLRDELPFSEDQWDLLHYELEEYFNLIL
- binding: binds
